## Primary screen of a compound library

Protein sequences, listed by entry. Tags and fused reporters are not part of them. Residues count along the entry.
UniProt Q4DA54, 1-478: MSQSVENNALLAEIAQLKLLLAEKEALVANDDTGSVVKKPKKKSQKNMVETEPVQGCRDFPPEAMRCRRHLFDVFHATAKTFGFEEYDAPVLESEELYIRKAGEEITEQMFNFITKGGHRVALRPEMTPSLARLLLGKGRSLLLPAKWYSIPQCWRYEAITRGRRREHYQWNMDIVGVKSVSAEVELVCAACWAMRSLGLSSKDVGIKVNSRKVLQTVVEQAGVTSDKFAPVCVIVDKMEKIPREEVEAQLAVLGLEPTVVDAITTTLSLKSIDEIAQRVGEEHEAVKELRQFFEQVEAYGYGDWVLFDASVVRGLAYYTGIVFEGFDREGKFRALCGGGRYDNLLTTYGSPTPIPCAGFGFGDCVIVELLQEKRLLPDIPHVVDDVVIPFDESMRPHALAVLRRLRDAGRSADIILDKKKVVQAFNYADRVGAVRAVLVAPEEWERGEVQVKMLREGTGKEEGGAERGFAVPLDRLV
UniProt I6X8D2, whole entry: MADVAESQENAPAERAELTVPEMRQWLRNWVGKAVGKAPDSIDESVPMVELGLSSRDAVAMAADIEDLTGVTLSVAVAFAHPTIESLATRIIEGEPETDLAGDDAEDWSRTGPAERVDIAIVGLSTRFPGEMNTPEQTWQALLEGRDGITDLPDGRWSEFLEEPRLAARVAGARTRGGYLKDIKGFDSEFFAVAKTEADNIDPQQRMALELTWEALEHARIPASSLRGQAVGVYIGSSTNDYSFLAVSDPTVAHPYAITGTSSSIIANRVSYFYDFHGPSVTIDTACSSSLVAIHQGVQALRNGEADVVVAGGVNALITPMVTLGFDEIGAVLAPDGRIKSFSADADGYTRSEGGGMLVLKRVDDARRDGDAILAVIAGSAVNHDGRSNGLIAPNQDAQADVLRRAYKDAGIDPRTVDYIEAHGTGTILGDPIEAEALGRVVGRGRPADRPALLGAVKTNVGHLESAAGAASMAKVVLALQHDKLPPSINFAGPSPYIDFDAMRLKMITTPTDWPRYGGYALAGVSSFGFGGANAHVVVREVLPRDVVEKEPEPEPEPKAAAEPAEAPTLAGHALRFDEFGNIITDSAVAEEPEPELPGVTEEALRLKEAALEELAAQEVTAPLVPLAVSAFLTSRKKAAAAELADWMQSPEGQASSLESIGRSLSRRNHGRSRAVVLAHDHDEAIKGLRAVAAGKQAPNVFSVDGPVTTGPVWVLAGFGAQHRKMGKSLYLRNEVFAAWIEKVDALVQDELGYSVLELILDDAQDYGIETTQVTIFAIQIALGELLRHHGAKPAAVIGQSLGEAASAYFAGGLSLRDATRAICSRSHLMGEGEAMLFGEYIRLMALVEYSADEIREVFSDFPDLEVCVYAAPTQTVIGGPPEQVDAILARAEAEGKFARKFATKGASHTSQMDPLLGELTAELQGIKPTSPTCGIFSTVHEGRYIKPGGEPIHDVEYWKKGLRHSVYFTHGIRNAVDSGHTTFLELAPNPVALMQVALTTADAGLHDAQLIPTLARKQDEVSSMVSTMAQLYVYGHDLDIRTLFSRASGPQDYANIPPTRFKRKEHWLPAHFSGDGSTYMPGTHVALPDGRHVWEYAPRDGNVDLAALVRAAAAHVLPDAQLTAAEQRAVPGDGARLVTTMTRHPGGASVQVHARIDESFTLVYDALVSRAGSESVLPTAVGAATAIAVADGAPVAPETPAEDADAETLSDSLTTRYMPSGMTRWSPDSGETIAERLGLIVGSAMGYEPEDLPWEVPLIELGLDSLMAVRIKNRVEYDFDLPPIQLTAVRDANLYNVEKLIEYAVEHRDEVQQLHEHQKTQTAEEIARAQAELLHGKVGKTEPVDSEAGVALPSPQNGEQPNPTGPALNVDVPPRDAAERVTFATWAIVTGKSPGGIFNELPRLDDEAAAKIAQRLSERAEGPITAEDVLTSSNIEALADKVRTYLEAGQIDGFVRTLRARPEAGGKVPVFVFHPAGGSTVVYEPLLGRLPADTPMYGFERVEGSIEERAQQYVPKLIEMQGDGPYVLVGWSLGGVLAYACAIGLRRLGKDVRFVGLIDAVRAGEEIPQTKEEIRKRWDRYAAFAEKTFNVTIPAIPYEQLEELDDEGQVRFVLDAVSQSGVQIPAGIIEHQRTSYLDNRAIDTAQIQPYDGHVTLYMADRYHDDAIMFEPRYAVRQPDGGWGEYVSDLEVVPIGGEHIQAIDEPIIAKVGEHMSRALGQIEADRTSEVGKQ
UniProt P9WNZ1, whole entry: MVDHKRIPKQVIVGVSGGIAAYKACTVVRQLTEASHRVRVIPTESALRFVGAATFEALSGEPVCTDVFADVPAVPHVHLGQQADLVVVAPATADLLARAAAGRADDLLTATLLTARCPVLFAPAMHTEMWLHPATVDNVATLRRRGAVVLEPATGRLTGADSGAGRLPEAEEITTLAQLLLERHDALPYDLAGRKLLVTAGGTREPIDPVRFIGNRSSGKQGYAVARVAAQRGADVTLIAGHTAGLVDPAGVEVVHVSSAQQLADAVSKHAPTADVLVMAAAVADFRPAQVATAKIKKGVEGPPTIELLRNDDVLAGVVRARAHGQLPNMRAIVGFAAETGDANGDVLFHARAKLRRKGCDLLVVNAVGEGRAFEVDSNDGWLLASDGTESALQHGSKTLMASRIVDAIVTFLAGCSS
UniProt Q8IDJ8, 1-583: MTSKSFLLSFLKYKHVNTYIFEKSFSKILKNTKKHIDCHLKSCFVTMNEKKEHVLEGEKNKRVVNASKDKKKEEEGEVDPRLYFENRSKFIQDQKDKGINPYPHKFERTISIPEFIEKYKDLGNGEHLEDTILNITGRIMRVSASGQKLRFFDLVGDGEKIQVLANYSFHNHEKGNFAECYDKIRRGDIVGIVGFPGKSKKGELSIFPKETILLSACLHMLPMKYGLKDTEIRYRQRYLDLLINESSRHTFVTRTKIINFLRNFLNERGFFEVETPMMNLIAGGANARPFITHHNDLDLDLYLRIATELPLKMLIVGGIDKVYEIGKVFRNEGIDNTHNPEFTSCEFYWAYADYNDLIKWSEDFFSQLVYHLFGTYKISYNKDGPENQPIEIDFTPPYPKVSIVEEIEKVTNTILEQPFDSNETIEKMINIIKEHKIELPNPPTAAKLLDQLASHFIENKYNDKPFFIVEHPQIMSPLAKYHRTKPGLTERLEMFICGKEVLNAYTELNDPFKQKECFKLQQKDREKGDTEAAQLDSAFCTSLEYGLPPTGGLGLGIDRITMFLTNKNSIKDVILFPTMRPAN
UniProt P9WFT3, whole entry: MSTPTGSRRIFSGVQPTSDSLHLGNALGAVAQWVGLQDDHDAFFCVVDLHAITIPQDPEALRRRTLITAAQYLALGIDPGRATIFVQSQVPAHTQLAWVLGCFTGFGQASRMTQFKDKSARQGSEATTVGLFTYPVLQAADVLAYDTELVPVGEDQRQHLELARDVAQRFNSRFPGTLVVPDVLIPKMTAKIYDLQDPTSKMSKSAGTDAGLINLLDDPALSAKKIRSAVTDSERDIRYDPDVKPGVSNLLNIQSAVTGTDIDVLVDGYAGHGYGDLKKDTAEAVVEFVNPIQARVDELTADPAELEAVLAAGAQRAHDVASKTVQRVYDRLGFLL

Source: ChEMBL document CHEMBL3988442, “University of Dundee, Small-Polar-MMV Screening Library” (2021).

TcHisRS: 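Histidine-tRNA ligase, Trypanosoma cruzi CL Brener (UniProt Q4DA54). Enzyme assay of histidyl-tRNA synthetase; the read-out is not stated. Concentration: 30 µM. Higher reads as stronger inhibition (inferred: compounds with an IC50 in retests scored well above the rest). Of about 69,000 compounds tested this way, about 31 (0.045%) reached 50% or more in at least one test.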
Pks13 thioesterase: 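Enzyme assay of the thioesterase domain of polyketide synthase 13; the read-out is not stated. Target: Polyketide synthase Pks13, Mycobacterium tuberculosis (UniProt I6X8D2). Compounds at 30 µM. The record gives no direction; the compounds picked for IC50 retests had high values, so higher reads as stronger inhibition. About 67,000 compounds were tested under these conditions; 0.46% (about 300) showed 50% or more at least once.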
CoaBC: 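Coenzyme A biosynthesis protein CoaBC, Mycobacterium tuberculosis (UniProt P9WNZ1). Enzyme assay of CoaBC with a phosphate dye (Biomol Green) read at 650 nm. Compounds at 30 µM. Direction is inferred from only a few compounds that gave an IC50; most scored high, so higher reads as stronger inhibition. Most strong results did not repeat in a second test. Of about 67,000 compounds tested this way, about 40 (0.06%) reached 50% or more in at least one test.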
Leishmania in macrophages: 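Cell assay of Leishmania donovani living inside macrophages; the read-out is not stated. Tested at 30 µM. Direction is inferred from retests: higher values go with stronger inhibition. About 69,000 compounds were tested under these conditions; 1.5% (about 1,000) showed 50% or more at least once.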
PfKRS1: 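Enzyme assay of the cytosolic lysyl-tRNA synthetase in 384-well plates, read by luminescence. Target: Lysine-tRNA ligase, Plasmodium falciparum 3D7 (UniProt Q8IDJ8). Tested at 30 µM. Direction is inferred from only a few compounds that gave an IC50; most scored high, so higher reads as stronger inhibition. About 69,000 compounds were tested under these conditions; 0.071% (about 49) showed 50% or more at least once.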
MtTrpRS: 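Enzyme assay of tryptophanyl-tRNA synthetase; the read-out is not stated. Target: Tryptophan-tRNA ligase, Mycobacterium tuberculosis (UniProt P9WFT3). Concentration: 10 µM. Direction is not recorded; retested compounds ran higher, which suggests that high means inhibition. Size under these conditions: about 65,000 compounds, about 64 of them at 50% or above in at least one test.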

Results are given as percent effect. How 0% and 100% were set is not recorded. Most values in the screen are low, and negative values occur. The compounds are a random part of those screened. Two or more numbers in one place are separate tests of the same structure; such repeats can differ widely. A dash means the value is not listed here; it may have been measured.

{"compound": "CN(C)C(=O)Cc1nc(CN2CCCC2Cn2cccn2)cs1", "stereo": "stereo not given", "TcHisRS": 2.941, "Pks13 thioesterase": -4.604, "CoaBC": 5.122, "Leishmania in macrophages": 36.15, "PfKRS1": 3.686, "MtTrpRS": 6.02}
{"compound": "Cn1cc(CN2CCC(c3[nH]ncc3S(C)(=O)=O)C2)cn1", "stereo": "stereo not given", "TcHisRS": 4.396, "Pks13 thioesterase": -22.75, "CoaBC": 2.913, "Leishmania in macrophages": "22.06 & 31.56", "PfKRS1": 2.585}
{"compound": "N#CC1(NC(=O)c2c(F)ccc(OC(F)F)c2F)CCOCC1", "TcHisRS": 1.657, "Pks13 thioesterase": -31.12, "CoaBC": 5.732, "Leishmania in macrophages": 3.259, "PfKRS1": 4.204, "MtTrpRS": -3.579}
{"compound": "Cc1cnc(N2CCC(OCCN3CCCCC3)C2)nc1C", "stereo": "stereo not given", "TcHisRS": -4.598, "Pks13 thioesterase": -7.307, "CoaBC": -16.8, "Leishmania in macrophages": -9.363, "PfKRS1": 4.952, "MtTrpRS": -2.952}
{"compound": "COc1cc2cc(C(=O)NCC(=O)O)n(C)c2c(OC)c1OC", "TcHisRS": 0, "Pks13 thioesterase": 9.61, "CoaBC": 0.9238, "Leishmania in macrophages": -27.97, "PfKRS1": -4.656, "MtTrpRS": -1.295}
{"compound": "CC(=O)N1CCN(C(=O)CN2CCCC2Cn2nc(C)cc2C)CC1", "stereo": "stereo not given", "TcHisRS": -0.8721, "Pks13 thioesterase": -8.644, "CoaBC": -7.334, "Leishmania in macrophages": 3.589, "PfKRS1": -3.282, "MtTrpRS": 5.085}
{"compound": "Cc1cnn(CC2CCCN2C(=O)c2n[nH]c(=O)c3ccccc23)c1", "stereo": "stereo not given", "TcHisRS": 5.539, "Pks13 thioesterase": -4.726, "CoaBC": 3.916, "Leishmania in macrophages": 1.335, "PfKRS1": 1.964, "MtTrpRS": -2.132}
{"compound": "COc1ccc(-c2cc3nn(CC(=O)NC(C)C)c(=O)n3c(C)n2)cc1", "TcHisRS": 12, "Pks13 thioesterase": -9.586, "CoaBC": 0.2421, "Leishmania in macrophages": 13.86, "PfKRS1": 2.021, "MtTrpRS": -2.72}
{"compound": "CC(C)Oc1ncc(C(=O)N2CCC(CC(N)=O)CC2)cc1Cl", "TcHisRS": 4.902, "Pks13 thioesterase": -4.223, "CoaBC": -2.439, "Leishmania in macrophages": 22.94, "PfKRS1": 6.64, "MtTrpRS": 3.16}
{"compound": "O=C(Cn1ccc2ccc(Cl)cc21)NCc1ccc(C(=O)O)cc1", "TcHisRS": -23.17, "Pks13 thioesterase": -5.529, "CoaBC": -3.797, "Leishmania in macrophages": "32.67 & 19.93", "PfKRS1": 6.387, "MtTrpRS": 5.112}
{"compound": "CC(=O)c1ccc(OCC(=O)NS(=O)(=O)c2ccc(Cl)s2)cc1", "TcHisRS": 0, "Pks13 thioesterase": -12.05, "CoaBC": 5.511, "Leishmania in macrophages": -25.38, "PfKRS1": 2.166, "MtTrpRS": 0.1874}
{"compound": "Cc1nc(NC(=O)N2CCCC(N(C)C)C2)nn1C", "stereo": "stereo not given", "TcHisRS": 14.94, "Pks13 thioesterase": -21.87, "CoaBC": 7.995, "Leishmania in macrophages": 13.98, "PfKRS1": -2.425, "MtTrpRS": -3.336}
{"compound": "CC(=O)N1CCCC1c1csc(Nc2cnccn2)n1", "stereo": "stereo not given", "TcHisRS": 6.452, "Pks13 thioesterase": 4.094, "CoaBC": 3.796, "Leishmania in macrophages": 36.5, "PfKRS1": 4.367, "MtTrpRS": -5.917}
{"compound": "CN1CCOCC2(CCCN(C(=O)c3cnccn3)C2)C1", "stereo": "stereo not given", "TcHisRS": 7.563, "Pks13 thioesterase": -5.865, "CoaBC": 7.505, "PfKRS1": 8.596, "MtTrpRS": 0.6876}
{"compound": "CN(Cc1n[nH]c(=O)n1CCc1ccccc1F)S(C)(=O)=O", "TcHisRS": 7.317, "Pks13 thioesterase": -0.4354, "CoaBC": -0.3764, "Leishmania in macrophages": 22.43, "PfKRS1": 2.989, "MtTrpRS": -6.388}
{"compound": "CN1CCN(c2ncccn2)CC12CCC(=O)N(CC1CC1)CC2", "stereo": "stereo not given", "TcHisRS": 4.082, "Pks13 thioesterase": -1.317, "CoaBC": -1.091, "Leishmania in macrophages": 7.521, "PfKRS1": 0.5627, "MtTrpRS": -2.694}
{"compound": "Cn1cc(C[C@H]2[C@H](N3CCOCC3)CCN2C(=O)c2ccc[nH]2)cn1", "TcHisRS": 6.122, "Pks13 thioesterase": -1.482, "CoaBC": 2.843, "Leishmania in macrophages": 39.27, "PfKRS1": 0.362, "MtTrpRS": 1.289}
{"compound": "O=C(Nc1ccccc1)N1C(CO)[C@]2(O)CC[C@H]1CC2", "stereo": "stereo not given in full", "TcHisRS": -2.247, "Pks13 thioesterase": -37.79, "CoaBC": -1.695, "PfKRS1": 1.817}
{"compound": "CCOCCN1CCN(Cc2cccc(C(=O)N(C)C)c2)CC1C", "stereo": "stereo not given", "TcHisRS": 6.215, "Pks13 thioesterase": -11.66, "CoaBC": 2.35, "Leishmania in macrophages": 17.28, "PfKRS1": 4.219, "MtTrpRS": -5.9}
{"compound": "Nc1nc(CN2CCCCC2Cn2cncn2)nc2ccccc12", "stereo": "stereo not given", "TcHisRS": 13.7, "Pks13 thioesterase": -13.98, "CoaBC": 9.838, "Leishmania in macrophages": 32.13, "PfKRS1": -0.6474, "MtTrpRS": 3.387}
{"compound": "Cc1nn(C)c(C)c1-c1ccc(=O)n(C(C)C(=O)NC2CCCCC2)n1", "stereo": "stereo not given", "TcHisRS": 2.825, "Pks13 thioesterase": -0.1549, "CoaBC": 6.295, "Leishmania in macrophages": 18.82, "PfKRS1": 0.8171, "MtTrpRS": -0.9791}
{"compound": "COc1c(C2CCCN2C(=O)c2cccc(C)n2)c(C)nn1C", "stereo": "stereo not given", "TcHisRS": 4.023, "Pks13 thioesterase": -4.839, "CoaBC": 2.71, "Leishmania in macrophages": 2.217, "PfKRS1": 1.085, "MtTrpRS": 0.4868}
{"compound": "COCC(O)CN1CCC(NC(=O)c2ccccc2Cl)CC1", "stereo": "stereo not given", "TcHisRS": 8.28, "Pks13 thioesterase": -30.17, "Leishmania in macrophages": 1.076, "PfKRS1": 1.576, "MtTrpRS": 2.523}
{"compound": "CC(Nc1ccc(N2C(=O)CCCC2=O)cc1)c1ccc(C#N)cc1", "stereo": "stereo not given", "TcHisRS": 1.053, "Pks13 thioesterase": -4.877, "CoaBC": 5.578, "Leishmania in macrophages": 6.997, "PfKRS1": 2.682, "MtTrpRS": -4.871}
{"compound": "CC1CCCN(C(=O)c2occc2COc2cccc(C#N)c2)C1", "stereo": "stereo not given", "TcHisRS": 3.509, "Pks13 thioesterase": -10.73, "CoaBC": -8.152, "Leishmania in macrophages": -29.88, "PfKRS1": 1.607, "MtTrpRS": 0.8602}

Once more, the final 3:

Compound	TcHisRS	Pks13 thioesterase	CoaBC	Leishmania in macrophages	PfKRS1	MtTrpRS
COCC(O)CN1CCC(NC(=O)c2ccccc2Cl)CC1 (stereo not given)	8.28%	-30.17%	-	1.076%	1.576%	2.523%
CC(Nc1ccc(N2C(=O)CCCC2=O)cc1)c1ccc(C#N)cc1 (stereo not given)	1.053%	-4.877%	5.578%	6.997%	2.682%	-4.871%
CC1CCCN(C(=O)c2occc2COc2cccc(C#N)c2)C1 (stereo not given)	3.509%	-10.73%	-8.152%	-29.88%	1.607%	0.8602%